Assay results reported in patent US12385042B2, “Cell-penetrating peptides” (VECTIOPEP OÜ, priority 2019, dated 2025).
Some results were stated once for a whole list of compounds, not compound by compound. Some ranges recur; such a range may be that of the whole group of compounds. Where a SMILES comes first, the peptide text is derived from it. Bridges are numbered along the chain shown (N, C = ends). Roman numbers before positions name the chains, in order. [ ]: non-standard residue; d: D form. The star is where a group is joined. Arachidoyl = CCCCCCCCCCCCCCCCCCCC(=O)*; Stearoyl = CCCCCCCCCCCCCCCCCC(=O)*; Orn = NCCC[C@H](N)C(=O)O

Tests used:
[1] = test system: CHO stably expressing green fluorescent protein (GFP); experiment: GFP gene downregulation by CPP/siGFP complexes (lysate fluorescence, FACS, confocal); format: cell-based
Method: For assessing the siRNA mediated RNAi, CHO-GFP or U87-luc2 cells (5×10^5 cells per well) were seeded on a 24-well plate a day prior to the experiment and grown in serum containing media. On experiment day, prior to adding pre-formed complexes ( 1/10th of the final volume per well), media was replaced with fresh serum containing medium.
For complex formation, peptide was mixed with luc2 siRNA (sense 5′-[…]-3′ (SEQ ID NO:7), antisense 5′-[…] 3′ (SEQ ID NO:8), Metabion, Germany) or with siRNA against GFP (5′-[…] (SEQ ID NO:9), 3′-[…] (SEQ ID NO:10)) in mQ water (pH 5.3-6.3) using peptide to siRNA molar ratios (MR is the ratio of peptide to siRNA) […] and incubated at RT for 1 h. For siLuc2, the final concentration in media was 25 nM and for siGFP 100 nM. Cells were co-incubated with complexes for 4 h (37° C., 5% CO2), thereafter fresh serum containing media was added and followed by further incubation (20 h for siLuc2 or 44 h for siGFP complexes). Luciferase gene downregulation was measured from cell lysates with Promega luciferase assay system (Promega, Sweden) in combination with GLOMAX 96 microplate luminometer equipped with GLOMAX 1.9.2 software (Promega). GFP was measured after treatment from cell lysates on black 96-well plates by measuring total fluorescence (Symergy MX, BioTek Instruments, USA equipped with Gen5 1.10 software). The results were normalized to the protein content of each sample (DC Protein Assay, BioRad, USA).
For flow cytometry analysis (FACS) analysis CHO-GFP cells were seeded and treated as described previously. After incubation, cells were washed with 1× PBS and detached from plates with trypsin-EDTA (0.25%), and re-suspended in PBS supplemented with FBS (5%) and transferred to transparent U-bottom 96-well plates. […] Population of viable cells was determined from scatter plot: forward scattered plot (FSC) vs. side scattered light (SSC) plot. A minimum of 10,000 events from the viable cell population per sample were analyzed using BD FACS Diva software. […]

[2] = test system: subcutaneous U87MG tumor xenograft; experiment: Biodistribution of CPP/Cy5-siRNA nanoparticles, U87 tumor; format: in vivo, mouse; settings: for accumulation in U87 tumor region relative to naked siRNA: i.v., 20 ug Cy5-siRNA, H4-C18 MR20, H6-C20 MR40
Method: (§1) Human tumor xenografts (subcutaneous U87MG and HT-1080) were induced in mice (Hsd: Athymic Nude-Foxn1nu female, 2.5 month old, Harlan, UK). The xenografting was performed by implanting the cell suspension (1×10^6 cells in 100 ul volume of ice-cold DMEM without any supplements) subcutaneously to the flank.
(§2) At the appearance of tumor size of approx. 100 mm^3, mice were injected i.v. (via tail vein) with the CPP/siRNA complexes. Each animal received a single 200 ul i.v. injection of 20 ug Cy5-siRNA, formulated with CPPs at MR20 or MR40. As a control, 20 μg of un-complexed Cy5-labeled siRNA was administered. The biodistribution of Cy5-siRNA and CPP/Cy5-siRNA complexes was evaluated at different time points −0.5 h up to 6 h. For that, mice (n=2 in each treatment group) were imaged in vivo using IVIS Lumina II (CaliperLS, USA). Cy-5 fluorescence intensity values were acquired from the tumor region.

[3] = test system: subcutaneous HT-1080 tumor xenograft; experiment: Biodistribution of CPP/Cy5-siRNA nanoparticles, HT-1080 tumor; format: in vivo, mouse; settings: for accumulation in HT-1080 tumor region relative to naked siRNA: i.v., 20 ug Cy5-siRNA, H4-C18 MR20, H6-C20 MR40
Method: as §1, §2

[4] = Negative staining TEM of CPP/siRNA nanoparticles; format: physicochemical; settings: CPP/siRNA complexes at MR30
Method: For the morphological analysis the CPP/siRNA complexes were assembled as described above at MR30. For negative staining, copper grids were covered with Formvar film and carbon layer using Leica EM ACE600 carbon coater (Leica Microsystems, Germany). Then, 10 μL of each sample was absorbed to the grids for 2 min and excess of solution was gently removed. Samples were then exposed to 2% aqueous uranyl acetate solution for 1 min. After removing excess stain with filter paper, the samples were allowed to air-dry. The samples were examined at 120 kV accelerating voltage on FEI Tecnai G2 Spirit electron microscope (FEI, The Netherlands).

| Molecule | cells with downregulated reporter gene (GFP signal below threshold), FACS [1] | accumulation in U87 tumor relative to naked Cy5-siRNA ([2]; at 3 and 6 h) | accumulation in U87 tumor region relative to naked siRNA [2] | accumulation in HT-1080 tumor relative to naked Cy5-siRNA ([3]; at 3 and 6 h) | accumulation in HT-1080 tumor region relative to naked siRNA [3] | length or size of elongated particles, conglomerates or aggregates (TEM) [4] | nanoparticle diameter / size (TEM) [4] |
| --- | --- | --- | --- | --- | --- | --- | --- |
| CCCCCCCCCCCCCCCCCC(=O)N[C@@H](C)C(=O)NCC(=O)N[C@@H](Cc1ccc(O)cc1)C(=O)N[C@@H](CC(C)C)C(=O)N[C@@H](CC(C)C)C(=O)NCC(=O)NCCC[C@H](N)C(=O)N[C@H](C(=O)N[C@@H](CC(N)=O)C(=O)N[C@@H](CC(C)C)C(=O)N[C@@H](CCCCN)C(=O)N[C@@H](C)C(=O)N[C@@H](CC(C)C)C(=O)N[C@@H](C)C(=O)N[C@@H](C)C(=O)N[C@@H](CC(C)C)C(=O)N[C@@H](C)C(=O)N[C@@H](CCCCN)C(=O)N[C@@H](C)C(=O)N[C@H](C(=O)N[C@@H](CC(C)C)C(N)=O)[C@@H](C)CC)[C@@H](C)CC [NF55, reference compound] (I: H-[Orn]INLKALAALAKAIL-NH2 / II: Stearoyl-AGYLLG; amide I:1-II:C) | 55-60% | – | – | – | – | – | – |
| CCCCCCCCCCCCCCCCCCCC(=O)N[C@@H](Cc1c[nH]cn1)C(=O)N[C@@H](Cc1c[nH]cn1)C(=O)N[C@@H](Cc1c[nH]cn1)C(=O)N[C@@H](Cc1c[nH]cn1)C(=O)N[C@@H](Cc1ccc(O)cc1)C(=O)N[C@@H](Cc1c[nH]cn1)C(=O)N[C@@H](Cc1c[nH]cn1)C(=O)NCC(=O)NCCC[C@H](N)C(=O)N[C@H](C(=O)N[C@@H](CC(C)C)C(=O)N[C@@H](CC(C)C)C(=O)N[C@@H](CCCCN)C(=O)N[C@@H](C)C(=O)N[C@@H](CC(C)C)C(=O)N[C@@H](CCCCN)C(=O)N[C@@H](C)C(=O)N[C@@H](CC(C)C)C(=O)N[C@@H](C)C(=O)N[C@@H](CCCCN)C(=O)N[C@@H](C)C(=O)N[C@H](C(=O)N[C@@H](CC(C)C)C(N)=O)[C@@H](C)CC)[C@@H](C)CC [NF70] (I: H-[Orn]ILLKALKALAKAIL-NH2 / II: Arachidoyl-HHHHYHHG; amide I:1-II:C) | 55-60% | more than 25 fold | more than 25 fold | more than 25 fold | more than 25 fold | – | – |
| CCCCCCCCCCCCCCCCCC(=O)N[C@@H](Cc1c[nH]cn1)C(=O)N[C@@H](Cc1c[nH]cn1)C(=O)N[C@@H](Cc1ccc(O)cc1)C(=O)N[C@@H](Cc1c[nH]cn1)C(=O)N[C@@H](Cc1c[nH]cn1)C(=O)NCC(=O)NCCC[C@H](N)C(=O)N[C@H](C(=O)N[C@@H](CC(C)C)C(=O)N[C@@H](CC(C)C)C(=O)N[C@@H](CCCCN)C(=O)N[C@@H](C)C(=O)N[C@@H](CC(C)C)C(=O)N[C@@H](CCCCN)C(=O)N[C@@H](C)C(=O)N[C@@H](CC(C)C)C(=O)N[C@@H](C)C(=O)N[C@@H](CCCCN)C(=O)N[C@@H](C)C(=O)N[C@H](C(=O)N[C@@H](CC(C)C)C(N)=O)[C@@H](C)CC)[C@@H](C)CC [NF71] (I: H-[Orn]ILLKALKALAKAIL-NH2 / II: Stearoyl-HHYHHG; amide I:1-II:C) | 55-60% | – | more than 25 fold | – | more than 25 fold | – | – |
| HHHHYHHGO^eILLKALKALAKAIL [NF701, group H6; C10 (decanoyl) fatty acid on N-terminus; C-terminally amidated] | – | – | – | – | – | 200-400 nm | 15-20 nm |
| HHHHYHHGO^eILLKALKALAKAIL [NF702, group H6; C18 saturated fatty acid on N-terminus; C-terminally amidated] | – | – | – | – | – | 200-400 nm | 15-20 nm |
